Data published in patent publication US8476434B2, “Protein kinase modulators and method of use” (Amgen Inc., priority 2004, dated 2013).
Some results were stated once for a whole list of compounds, not compound by compound.

Sequences of proteins named here, by UniProt entry; tags and fusion partners are left off. Residues count along the entry.
UniProt Q02763, 23-1124: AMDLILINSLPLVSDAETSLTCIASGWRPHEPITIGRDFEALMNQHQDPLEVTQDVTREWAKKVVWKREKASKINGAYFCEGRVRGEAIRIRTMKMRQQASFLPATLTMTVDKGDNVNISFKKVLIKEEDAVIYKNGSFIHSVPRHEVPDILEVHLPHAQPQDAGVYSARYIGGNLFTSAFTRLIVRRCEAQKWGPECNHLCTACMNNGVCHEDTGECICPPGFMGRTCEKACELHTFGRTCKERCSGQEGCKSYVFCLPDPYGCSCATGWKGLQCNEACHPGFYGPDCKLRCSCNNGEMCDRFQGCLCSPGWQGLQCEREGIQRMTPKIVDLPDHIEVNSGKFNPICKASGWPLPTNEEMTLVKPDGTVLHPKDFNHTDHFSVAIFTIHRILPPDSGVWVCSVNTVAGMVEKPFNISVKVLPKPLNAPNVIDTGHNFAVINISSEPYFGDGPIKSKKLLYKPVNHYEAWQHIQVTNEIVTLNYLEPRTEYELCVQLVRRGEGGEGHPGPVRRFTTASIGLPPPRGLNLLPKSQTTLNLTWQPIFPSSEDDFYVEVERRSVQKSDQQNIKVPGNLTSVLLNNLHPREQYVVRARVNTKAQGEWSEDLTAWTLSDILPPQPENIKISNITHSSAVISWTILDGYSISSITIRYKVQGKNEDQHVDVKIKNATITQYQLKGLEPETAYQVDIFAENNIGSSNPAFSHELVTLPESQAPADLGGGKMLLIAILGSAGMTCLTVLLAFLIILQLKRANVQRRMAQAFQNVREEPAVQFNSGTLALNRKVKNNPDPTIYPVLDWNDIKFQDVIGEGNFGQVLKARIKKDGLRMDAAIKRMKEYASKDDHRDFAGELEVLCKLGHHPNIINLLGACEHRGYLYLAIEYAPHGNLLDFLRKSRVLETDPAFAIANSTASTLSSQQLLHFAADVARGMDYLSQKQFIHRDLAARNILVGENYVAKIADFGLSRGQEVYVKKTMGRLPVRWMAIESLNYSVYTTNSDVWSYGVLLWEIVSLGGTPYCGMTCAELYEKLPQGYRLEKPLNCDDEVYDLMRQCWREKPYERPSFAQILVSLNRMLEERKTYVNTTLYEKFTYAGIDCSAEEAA

Biological target: Tie-2 kinase enzyme (Homo sapiens, UniProt Q02763)
Test: Tie-2 Homogenous Time Resolved Fluorescent (HTRF) kinase assay
Type: biochemical
Details: read-out: IC50's for the inhibition of Tie-2 as measured by the HTRF assay

Structure (SMILES)	IC50 [µM]
CNc1nccc(-c2cccnc2Oc2cc(NC(=O)c3cccc(C(C)C)c3)cc(C(F)(F)F)c2)n1 [Example 758, N-(3-((3-(2-(methylamino)-4-pyrimidinyl)-2-pyridinyl)oxy)-5-(trifluoromethyl)phenyl)-3-(1-methylethyl)benzamide]	< 5
CNc1cc(-c2cccnc2Oc2ccc(Cl)c(NC(=O)c3cc(C(F)(F)F)ccc3F)c2)ccn1 [Example 759, N-(2-chloro-5-((2′-(methylamino)-3,4′-bipyridin-2-yl)oxy)phenyl)-2-fluoro-5-(trifluoromethyl)benzamide]	< 5
CNc1cc(-c2cccnc2Oc2cccc(NC(=O)c3cccc(C(C)C)c3)c2)ccn1 [Example 760, N-(3-((2′-(methylamino)-3,4′-bipyridin-2-yl)oxy)phenyl)-3-(1-methylethyl)benzamide]	< 5
CNc1ncnc(-c2cccnc2Oc2cccc(NC(=O)c3cccc(C(C)C)c3)c2)n1 [Example 761, N-(3-((3-(4-(methylamino)-1,3,5-triazin-2-yl)-2-pyridinyl)oxy)phenyl)-3-(1-methylethyl)benzamide]	< 5
CNc1ncnc(-c2cccnc2Oc2cc(NC(=O)c3cccc(C(C)C)c3)cc(C(F)(F)F)c2)n1 [Example 762, N-(3-((3-(4-(methylamino)-1,3,5-triazin-2-yl)-2-pyridinyl)oxy)-5-(trifluoromethyl)phenyl)-3-(l-methylethyl)benzamide]	< 5
CNc1nccc(-c2cccnc2Oc2cc(NC(=O)c3cccc(C(C)C)c3)ccc2C)n1 [Example 763, 3-(1-methylethyl)-N-(4-methyl-3-((3-(2-(methylamino)-4-pyrimidinyl)-2-pyridinyl)oxy)phenyl)benz-amide]	< 5
CNc1ncnc(-c2cccnc2Oc2cc(NC(=O)c3cccc(C(C)C)c3)ccc2C)n1 [Example 764, 3-(1-methylethyl)-N-(4-methyl-3-((3-(4-(methylamino)-1,3,5-triazin-2-yl)-2-pyridinyl)oxy)phenyl) benzamide]	< 5
CNc1nccc(-c2cccnc2Oc2cccc(NC(=O)c3cccc(C(C)C)c3)c2)n1 [Example 765, N-(3-((3-(2-(methylamino)-4-pyrimidinyl)-2-pyridinyl)oxy)phenyl)-3-(1-methylethyl)benzamide]	< 5
CNc1nccc(-c2cccnc2Oc2cccc(NC(=O)c3cc(C(C)(C)C)ccc3OC)c2)n1 [Example 766, 5-(1,1-dimethylethyl)-N-(3-((3-(2-(methylamino)-4-pyrimidinyl)-2-pyridinyl)oxy)phenyl)-2-(methyloxy)benzamide]	< 5
CNc1nccc(-c2cccnc2Oc2cccc(NC(=O)c3cccc(OC(F)(F)C(F)F)c3)c2)n1 [Example 767, N-(3-((3-(2-(methylamino)-4-pyrimidinyl)-2-pyridinyl)oxy)phenyl)-3-((1,1,2,2-tetrafluoroethyl)oxy)benz-amide]	< 5
CNc1nccc(-c2cccnc2Oc2cccc(NC(=O)c3cc(Cl)cc(Cl)c3)c2)n1 [Example 768, 3,5-dichloro-N-(3-((3-(2-(methylamino)-4-pyrimidinyl)-2-pyridinyl)oxy)phenyl)benz-amide]	< 5
CNc1cc(-c2cccnc2Oc2cc(NC(=O)c3cccc(C(C)C)c3)cc(C(F)(F)F)c2)ccn1 [Example 769, N-(3-((2′-(methylamino)-3,4′-bipyridin-2-yl)oxy)-5-(trifluoromethyl)phenyl)-3-(1-methylethyl)benzamide]	< 5
CNc1cc(-c2cccnc2Oc2cc(NC(=O)c3cccc(N(C)C)c3)ccc2C)ccn1 [Example 770, 3-(dimethylamino)-N-(4-methyl-3-((2′-(methylamino)-3,4′ - bipyridin-2-yl)oxy)phenyl)benzamide]	< 5
CNc1nccc(-c2cccnc2Oc2cc(NC(=O)c3cccc(N(C)C)c3)cc(C(F)(F)F)c2)n1 [Example 771, 3-(dimethylamino)-N-(3-((3-(2-(methylamino)-4-pyrimidinyl)-2-pyridinyl)oxy)-5-(trifluoromethyl)phenyl)benz-amide]	< 5
CNc1cc(-c2cccnc2Oc2ccc(Cl)c(NC(=O)c3cccc(C(C)C)c3)c2)ccn1 [Example 772, N-(2-chloro-5-((2′-(methylamino)-3,4′-bipyridin-2-yl)oxy)phenyl)-3-(1-methylethyl)benzamide]	< 5
CNc1nccc(-c2cccnc2Oc2ccc(Cl)c(NC(=O)c3cccc(C(C)C)c3)c2)n1 [Example 773, N-(2-chloro-5-((3-(2-(methylamino)-4-pyrimidinyl)-2-pyridinyl)oxy)phenyl)-3-(1-methylethyl)benzamide]	< 5
CNc1ncnc(-c2cccnc2Oc2cc(NC(=O)c3cccc(C(C)C)c3)ccc2F)n1 [Example 774, N-(4-fluoro-3-((3-(4-(methylamino)-1,3,5-triazin-2-yl)-2-pyridinyl)oxy)phenyl)-3-(1-methylethyl)benzamide]	< 5

Structure (SMILES)	IC50 [µM]
CNc1ncnc(-c2cccnc2Oc2ccc(F)c(C(=O)Nc3cccc(C(C)(C)C)c3)c2)n1 [Example 775, N-(3-(1,1-dimethylethyl)phenyl)-2-fluoro-5-((3-(4-(methylamino)-1,3,5-triazin-2-yl)-2-pyridinyl)oxy)benzamide]	< 5
CNc1nccc(-c2cccnc2Oc2ccc(NC(=O)Nc3cc(OC)cc(OC)c3)cc2C)n1 [Example 795, N-(3,5-bis(methyloxy)phenyl)-N′-(3-methyl-4-((3-(2-(methylamino)-4-pyrimidinyl)-2-pyridinyl)oxy)phenyl)urea]	< 5
Cc1cc(NC(=S)Nc2cccc(C(F)(F)F)c2)ccc1Oc1ncccc1-c1ccncn1 [Example 797, N-(3-methyl-4-((3-(4-pyrimidinyl)-2-pyridinyl)oxy)phenyl)-N′-(3-(trifluoromethyl)phenyl)thio-urea]	< 5
CNc1nccc(-c2cccnc2Oc2ccc(NC(=O)Nc3cc(C(F)(F)F)ccc3N(C)CCCN(C)C)cc2C)n1 [Example 812, N-(2-((3-(dimethylamino)propyl) (methyl)amino)-5-(trifluoromethyl)phenyl)-N′-(3-methyl-4-((3-(2-(methylamino)-4-pyrimidinyl)-2-pyridinyl)oxy)phenyl)urea]	< 5
CNc1nccc(-c2cccnc2Oc2ccc(NC(=O)Nc3cc(C(F)(F)F)ccc3OCCN3CCCC3)cc2C)n1 [Example 813, N-(3-methyl-4-((3-(2-(methylamino)-4-pyrimidinyl)-2-pyridinyl)oxy)phenyl)-N′-(2-((2-(1-pyrrolidinyl)ethyl)oxy)-5-(trifluoromethyl)phenyl)urea]	< 5
CNc1nccc(-c2cccnc2Oc2ccc(NC(=O)Nc3cc(Cl)ccc3N(C)CCCN(C)C)cc2C)n1 [Example 819, N-(5-chloro-2-((3-(dimethylamino)propyl) (methyl)amino)phenyl)-N′-(3-methyl-4-((3-(2-(methylamino)-4-pyrimidinyl)-2-pyridinyl)oxy)phenyl)urea]	< 5
CNc1nccc(-c2cccnc2Oc2ccc(NC(=O)Nc3cc(Br)ccc3N(C)CCCN(C)C)cc2C)n1 [Example 821]	< 5
CNc1nccc(-c2cccnc2Oc2ccc(NC(=O)Nc3cc(C(F)(F)F)ccc3OCCCN(C)C)cc2C)n1 [Example 822, N-(2-((3-(dimethylamino)propyl)oxy)-5-(trifluoromethyl)phenyl)-N′-(3-methyl-4-((3-(2-(methylamino)-4-pyrimidinyl)-2-pyridinyl)oxy)phenyl)urea]	< 5
CNc1ncnc(-c2cccnc2Oc2ccc(NC(=S)Nc3cc(C(F)(F)F)ccc3F)c3ccccc23)n1 [Example 828, N-(2-fluoro-5-(trifluoromethyl)phenyl)-N′-(4-((3-(4-(methylamino)-1,3,5-triazin-2-yl)-2-pyridinyl)oxy)-1-naphthalenyl)thiourea]	< 5
CNc1ncnc(-c2cccnc2Oc2ccc(NC(=O)Nc3cc(C(C)(C)C)ccc3OC)c3ccccc23)n1 [Example 829, N-(5-(1,1-dimethylethyl)-2-(methyloxy)phenyl)-N′-(4-((3-(4-(methylamino)-1,3,5-triazin-2-yl)-2-pyridinyl)oxy)-1-naphthalenyl)urea]	< 5
CNc1ncnc(-c2cccnc2Oc2ccc(NC(=O)Nc3cc(C(F)(F)F)cc(C(F)(F)F)c3)c3ccccc23)n1 [Example 830, N-(3,5-bis(trifluoromethyl)phenyl)-N′-(4-((3-(4-(methylamino)-1,3,5-triazin-2-yl)-2-pyridinyl)oxy)-1-naphthalenyl)urea]	< 5
CNc1ncnc(-c2cccnc2Oc2ccc(NC(=S)Nc3cccc(SC(F)(F)F)c3)c3ccccc23)n1 [Example 831, N-(4-((3-(4-(methylamino)-1,3,5-triazin-2-yl)-2-pyridinyl)oxy)-1-naphthalenyl)-N′-(3-((trifluoromethyl)sulfanyl)phenyl)thiourea]	< 5
CCc1cccc(NC(=O)Nc2ccc(Oc3ncccc3-c3ncnc(NC)n3)c3ccccc23)c1 [Example 832, N-(3-ethylphenyl)-N′-(4-((3-(4-(methylamino)-1,3,5-triazin-2-yl)-2-pyridinyl)oxy)-1-naphthalenyl)urea]	< 5
CNc1ncnc(-c2cccnc2Oc2ccc(NC(=S)Nc3cc(C(F)(F)F)cc(C(F)(F)F)c3)c3ccccc23)n1 [Example 833, N-(3,5-bis(trifluoromethyl)phenyl)-N′-(4-((3-(4-(methylamino)-1,3,5-triazin-2-yl)-2-pyridinyl)oxy)-1-naphthalenyl)thiourea]	< 5
CNc1nccc(-c2cccnc2Oc2ccc(NC(=O)Nc3cc(C(F)(F)F)ccc3F)cc2Cl)n1 [Example 835, N-(3-chloro-4-((3-(2-(methylamino)-4-pyrimidinyl)-2-pyridinyl)oxy)phenyl)-N′-(2-fluoro-5-(trifluoromethyl)phenyl)urea]	< 5
CNc1nccc(-c2cccnc2Oc2ccc(NC(=O)Nc3cc(C(F)(F)F)cc(Cl)c3N(C)CCCN(C)C)cc2C)n1 [Example 840, N-(3-chloro-2-((3-(dimethylamino)propyl) (methyl)amino)-5-(trifluoromethyl)phenyl)-N′-(3-methyl-4-((3-(2-(methylamino)-4-pyrimidinyl)-2-pyridinyl)oxy)phenyl)urea]	< 5
